Assay results from article PMC11649789.
These are yes or no findings as the source states them, for the method shown. Binding seen in cells or lysates may run through a third protein. Binding can be weak; no strength is given.

Biological target: FLAG-ALIX V domain
Test: co-IP; HEK293T expressing FLAG, FLAG-ALIX or FLAG-tagged ALIX mutants, with Myc-PKR (Fig. 5C) or with GFP, GFP-Gal3 or GFP-Gal3 R186S (Fig. 6F); untreated or 1 mM LLOMe 30 min; NP-40 lysate, anti-FLAG antibody, Dynabeads; immunoblot (Fig. 5A, 5C, 6F)

binding: binds
B1: PACT, protein activator of PKR, endogenous (protein, UniProt O75569 1-313)
chain: MSQSRHRAEAPPLEREDSGTFSLGKMITAKPGKTPIQVLHEYGMKTKNIPVYECERSDVQIHVPTFTFRVTVGDITCTGEGTSKKLAKHRAAEAAINILKANASICFAVPDPLMPDPSKQPKNQLNPIGSLQELAIHHGWRLPEYTLSQEGGPAHKREYTTICRLESFMETGKGASKKQAKRNAAEKFLAKFSNISPENHISLTNVVGHSLGCTWHSLRNSPGEKINLLKRSLLSIPNTDYIQLLSEIAKEQGFNITYLDIDELSANGQYQCLAELSTSPITVCHGSGISCGNAQSDAAHNALQYLKIIAERK
